Results published in PubChem BioAssay AID2551 (National Center for Advancing Translational Sciences (NCATS), 2010).
Among all 310,000 compounds or so, about 17,000 (5.5%) were called active. Inconclusive results, whose numbers are uncertain, are shown with a selection of clear calls. Calls follow the shape of the dose curve; as a rule, active = well fitted inhibition curve with a large enough effect; inconclusive = small, poorly fitted or top-dose-only effect, or effect the other way; inactive = no such curve, though single readings can be large or run the other way. Potencies of inconclusive entries are doubtful fits and often do not repeat.

The chains behind the UniProt entries cited, without tags or fusion partners. Where a name states a change or a piece, a line headed by the entry shows the natural chain unless it says otherwise.
UniProt P51450: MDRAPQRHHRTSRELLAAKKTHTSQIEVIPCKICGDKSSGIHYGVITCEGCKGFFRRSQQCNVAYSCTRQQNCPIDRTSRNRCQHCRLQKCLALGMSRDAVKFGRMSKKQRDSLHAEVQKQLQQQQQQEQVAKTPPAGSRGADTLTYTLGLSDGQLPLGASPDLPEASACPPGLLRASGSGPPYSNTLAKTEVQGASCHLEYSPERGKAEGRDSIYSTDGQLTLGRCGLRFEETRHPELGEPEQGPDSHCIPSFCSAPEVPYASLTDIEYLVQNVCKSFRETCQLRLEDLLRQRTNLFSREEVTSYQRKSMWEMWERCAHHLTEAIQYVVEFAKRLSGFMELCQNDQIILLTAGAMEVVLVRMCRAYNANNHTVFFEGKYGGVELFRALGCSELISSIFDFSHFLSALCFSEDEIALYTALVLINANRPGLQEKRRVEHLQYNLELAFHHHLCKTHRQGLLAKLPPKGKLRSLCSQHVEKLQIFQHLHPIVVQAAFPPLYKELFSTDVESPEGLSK

Biological target: Nuclear receptor ROR-gamma (Mus musculus) (UniProt P51450)
Assay: qHTS for inhibitors of ROR gamma transcriptional activity; also: nearly all actives have a fitted effect of over 60% in size
Details: Drosophila S2 Gal4-RORgamma UAS-luciferase reporter, 20 h; series mostly up to 53.6 µM
How it was run: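 Using a luciferase readout, inhibitors were identified by reduced reporter activity in Drosophila cells coexpressing a copper-inducible Gal4–ROR gamma fusion and UAS-driven Photinus luciferase, incubated 20 hr after 700 uM copper sulfate.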
Potency is read from the fitted curve at half-maximal effect.

Potency, inconclusive:
COc1ccc(C(=O)Nc2ccccc2C(=O)NCc2ccco2)cc1 14.1 µM [activator, partial curve, poor fit], COc1cc2c(cc1NC(=O)Nc1ccccc1)oc1ccccc12 35.5 µM [activator, single point], S=C(NCc1ccco1)Nc1cc(Cl)c(Cl)cc1Cl 17.8 µM [inhibitor, single point], N#CCc1nc(C(c2ccccc2)c2ccccc2)no1 31.6 µM [activator, single point], Cc1ccc(S(=O)(=O)CCSc2n[nH]c(=O)n2-c2ccccc2)cc1 11.2 µM [activator, partial curve], COc1ccc(NS(=O)(=O)c2ccc(NC(=O)c3ccc(N(C)S(C)(=O)=O)cc3)cc2)cc1 11.2 µM [activator, partial curve], COc1ccc(CN(C(=O)c2ccc3c(c2)OCCO3)C(C(=O)NC2CCCCC2)c2ccc3ncccc3c2)cc1 (stereo not drawn) 12.6 µM [inhibitor, single point], CCC1(CC)NC(=O)N(CC(=O)OCn2nnc3ccccc3c2=O)C1=O 10 µM [activator, partial curve], COc1ccc(CCNC(=O)Cn2cnc3scc(-c4ccccc4)c3c2=O)cc1OC 17.8 µM [activator, single point], O=C(Nc1ccc2c(c1)OCCO2)c1ccccc1F 10 µM [inhibitor, single point], COc1ccc(NC(=O)/C=C/c2ccc(C)o2)cc1S(=O)(=O)N1CCOCC1 35.5 µM [activator, single point], c1ccc(-n2nnnc2SCc2cccc3nsnc23)cc1 7.94 µM [activator, partial curve], COc1cccc(CN(C)C(=O)c2cc(-c3cccs3)nc3ccccc23)c1 35.5 µM [activator, single point], CCc1ccc(OCCOCC(O)CN2CCN(Cc3ccc(Cl)cc3)CC2)cc1 (stereo not drawn) 22.4 µM [activator, single point], CCc1cc(=O)oc2cc(C)cc(OC(=O)c3ccco3)c12 20 µM [activator, single point], O=C(CSc1ccccn1)Nc1ccc2ccccc2c1 10 µM [activator, single point], O=C(Cn1nc(C(=O)O)c2ccccc2c1=O)Nc1ccc(Br)cc1 15.8 µM [activator, single point], CCSc1nc(C)cc(C)c1S(=O)(=O)c1ccccc1C 35.5 µM [activator, single point], Cc1cccc(CNc2nc(-c3ccc(C(=O)N(C)C)cc3)nc3ccccc23)c1 22.4 µM [activator, single point], CC(C)c1ccc(OCC(=O)NC(=S)Nc2ccc3c4c(cccc24)CC3)cc1 17.8 µM [inhibitor, single point], C=CCn1c(SCC(=O)c2cc(C)n(C(C)COC)c2C)nc2sc(C)c(C)c2c1=O (stereo not drawn) 25.1 µM [inhibitor, single point], COc1ccc(OCc2nn3c(-c4ccco4)nnc3s2)cc1 11.2 µM [activator, partial curve, poor fit], Cc1ccc(-n2nnc(-c3nccn3C)n2)cc1 14.1 µM [inhibitor, partial curve, poor fit], CC[C@@]1(O)C(=O)OCc2c1cc1n(c2=O)Cc2cc3c(CN(C)C)c(O)ccc3nc2-1 3.16 µM [inhibitor, partial curve], CCOc1ccccc1NC1=C(Cl)C(=O)N(c2ccc(OC)cc2)C1=O 12.6 µM [activator, partial curve], CCC(Sc1nncn1C)C(=O)Nc1nnc(-c2ccc(Cl)cc2)s1 (stereo not drawn) 17.8 µM [inhibitor, single point], COc1ccc(-c2cc(C(=O)Nc3ccccc3F)on2)cc1 3.16 µM [activator, full curve], O=C(O)c1ccc(Cl)c(S(=O)(=O)NC(Cc2c[nH]c3ccccc23)C(=O)O)c1 (stereo not drawn) 35.5 µM [activator, partial curve, poor fit], CN(C)CCCN(C(=O)c1ccc(S(=O)(=O)N2CCCC2)cc1)c1nc2ccc(Br)cc2s1 22.4 µM [inhibitor, single point], CCOc1c(OC(C)=O)ccc(/C=C/c2ccc3cccc(OC)c3n2)c1[N+](=O)[O-] 10 µM [activator, partial curve], COc1ccc(N=Cc2c(O)[nH]c3ccccc23)cc1OC 14.1 µM [activator, single point], CC(=O)c1ccc(NC(=O)c2cc(Cl)sc2Cl)cc1 0.447 µM [activator, full curve], O=C(CCc1ccccc1)Nc1cccc(NC(=O)CCc2ccccc2)c1 15.8 µM [activator, single point], Cc1ccc(Nc2nc(N)c([N+](=O)[O-])c(NCc3ccco3)n2)cc1 12.6 µM [activator, partial curve], COC(=O)Cc1nnc(NC(=O)C(C)C)s1 35.5 µM [inhibitor, single point], CCc1ccc(/C=C2/C(=O)N(C)C(=S)N2CC(=O)OC)s1 10 µM [activator, partial curve], CCCC1/C(=N/O)CC(c2ccccc2)NC1c1ccccc1 (stereo not drawn) 22.4 µM [inhibitor, single point], CC(C)(C)c1cc(NC(=O)CSc2nnc(NCc3ccccc3)s2)n(-c2ccccc2)n1 35.5 µM [inhibitor, single point], CCN(C(C)=O)c1nnc(CSc2nc3ccccc3s2)s1 11.2 µM [inhibitor, single point], CCOC(=O)C(NC(=O)c1ccccc1)(Nc1cc(C)on1)C(F)(F)F (stereo not drawn) 5.62 µM [inhibitor, single point], O=c1oc(Nc2ccc(F)cc2)nc2ccccc12 35.5 µM [inhibitor, single point], COc1ccccc1N(CC(=O)N1CCOCC1)S(C)(=O)=O 25.1 µM [inhibitor, single point], N#CCCCN1C(=O)C(=C(C#N)C#N)c2ccccc21 15.8 µM [inhibitor, single point], O=C(c1ccc(COc2ccc3ccccc3c2)o1)N1N=C(C(F)F)CC1(O)C(F)F (stereo not drawn) 35.5 µM [inhibitor, single point], CC(C)(CCC(=S)N1CCOCC1)C1CCCCC1 25.1 µM [inhibitor, single point], O=C(NCCNC(=O)c1cc(OCC(F)(F)F)ccc1OCC(F)(F)F)Nc1cccc(C(F)(F)F)c1 15.8 µM [activator, single point]

Potency, active:
Cc1cc(-c2nnc(SCC(=O)Nc3nc(-c4ccccc4)cs3)o2)no1 14.1 µM, S=C(NCCc1ccccn1)NC1CCCCC1 12.6 µM, COCCNC(=S)N/N=C(\C)c1ccc(OC)cc1 0.631 µM, N#C/C(=C\c1c[nH]c2ccccc12)C(=O)Nc1ncc(Cc2ccc(Cl)cc2Cl)s1 1.41 µM, Cc1ccc(N2CN(CCc3ccccc3)CNC2=S)cc1 5.01 µM, CCCC(C(=O)NC1=NCCS1)c1ccccc1 (stereo not drawn) 11.2 µM, Cc1ccc(NC(=S)NCCN2CCOCC2)cc1C 11.2 µM, C(=C/c1nccc2c1[nH]c1ccccc12)/c1ccc2c(c1)OCO2 0.891 µM

Potency, inactive:
CC1(C)CC(=O)C=C(NNC(=O)c2cccnc2)C1, O=C(N/N=C/c1sc(N2CCOCC2)nc1-c1ccccc1)c1ccccc1F, CCc1cc(=O)oc2cc(OCC(=O)NCC3CCC(C(=O)O)CC3)ccc12 (stereo not drawn), COC(=O)c1c(-c2ccccc2)nn(-c2ccccc2)c1C(=O)OC, COc1ccc(C)cc1S(=O)(=O)Nc1cccc(C)c1, COc1c2c(nc3ccccc13)OC(C(C)(O)COC(C)=O)C2 (stereo not drawn), Cc1ccc(C)c(Cn2c(O)c(N=NC(=S)Nc3ccccc3F)c3ccccc32)c1, Cc1sc2ncn(CC(=O)NCCc3ccccc3)c(=O)c2c1C, COc1ccccc1Oc1coc2cc(OCC(N)=O)ccc2c1=O, O=c1cnc2cnc(N3CCNCC3)nc2n1CCc1ccccc1, CC(=O)c1c(C)[nH]c(C(=O)N(C)C(c2ccccc2)c2ccccc2)c1C, Cc1c(C(=O)NC2CCN(Cc3ccccc3)C2)oc2ccc(Br)cc12 (stereo not drawn), CCOC(=O)CCSc1nc(N2CCOCC2)c2c(c1C#N)CC(C)(C)OC2, C=CCNC(=O)COc1ccc(S(=O)(=O)N2CCCC2)cc1, Cc1cc(C)c(OCC(=O)N/N=C/c2ccc3c(c2)OCO3)c(C)c1, COc1ccc(N2CCN(C(=O)c3cc4ccccc4o3)CC2)cc1, Cc1ccc(C)c(N2CCN(C(=O)Cn3ncn4cccc4c3=O)CC2)c1, Cc1ccc(OC(=O)CCS(=O)(=O)c2ccc(C)cc2)cc1, O=c1cnn(Cc2c(Cl)cccc2Cl)c2ccccc12
